Publication PMC8466577
These are yes or no findings as the source states them, for the method shown. In cells and extracts the contact can be indirect. A result given as binding can be weak or reduced; the word gives no strength.

What was measured:
[1] = biological target: T1, THOC5 (human (endogenous in SKOV-3 and PC-3)) (UniProt Q13769); assay: co-IP; small-scale IPs from PC-3 lysates (1 mg protein) with antibodies to THOC5, THOC2 or RAB11 on Protein G-Dynal beads, normal rabbit IgG as control; Western blot for THOC5, THOC2, SEPT2, SEPT7, RAB11, HMGB1
T1 sequence: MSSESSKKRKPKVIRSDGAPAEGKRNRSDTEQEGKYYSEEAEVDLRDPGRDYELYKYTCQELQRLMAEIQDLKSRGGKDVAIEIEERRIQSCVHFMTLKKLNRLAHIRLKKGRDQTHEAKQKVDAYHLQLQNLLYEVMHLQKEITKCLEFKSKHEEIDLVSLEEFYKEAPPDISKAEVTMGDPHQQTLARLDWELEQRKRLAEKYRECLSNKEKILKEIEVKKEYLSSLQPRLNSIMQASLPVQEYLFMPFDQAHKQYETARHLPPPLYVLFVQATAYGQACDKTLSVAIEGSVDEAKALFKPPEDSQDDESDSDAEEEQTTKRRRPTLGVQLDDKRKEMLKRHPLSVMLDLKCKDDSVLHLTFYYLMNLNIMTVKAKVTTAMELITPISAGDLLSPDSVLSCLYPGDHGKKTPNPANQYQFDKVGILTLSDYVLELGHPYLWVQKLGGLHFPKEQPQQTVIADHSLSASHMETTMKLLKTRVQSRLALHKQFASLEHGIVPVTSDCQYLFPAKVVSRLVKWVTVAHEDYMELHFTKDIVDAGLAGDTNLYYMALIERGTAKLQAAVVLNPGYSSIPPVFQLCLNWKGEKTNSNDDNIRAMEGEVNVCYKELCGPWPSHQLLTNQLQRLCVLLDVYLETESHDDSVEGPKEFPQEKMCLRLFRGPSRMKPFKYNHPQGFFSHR

[2] = biological target: RAB11 (human (endogenous in PC-3)); assay: as above

Molecule | binding [1] | binding [2]
RAB11 (human (endogenous in PC-3)) | binds | –
SEPT2 (protein, UniProt Q15019 1-361) MSKQQPTQFINPETPGYVGFANLPNQVHRKSVKKGFEFTLMVVGESGLGKSTLINSLFLTDLYPERVIPGAAEKIERTVQIEASTVEIEERGVKLRLTVVDTPGYGDAINCRDCFKTIISYIDEQFERYLHDESGLNRRHIIDNRVHCCFYFISPFGHGLKPLDVAFMKAIHNKVNIVPVIAKADTLTLKERERLKKRILDEIEEHNIKIYHLPDAESDEDEDFKEQTRLLKASIPFSVVGSNQLIEAKGKKVRGRLYPWGVVEVENPEHNDFLKLRTMLITHMQDLQEVTQDLHYENFRSERLKRGGRKVENEDMNKDQILLEKEAELRRMQEMIARMQAQMQMQMQGGDGDGGALGHHV | – | binds
SEPT7 (protein, UniProt Q16181 1-437) MSVSARSAAAEERSVNSSTMVAQQKNLEGYVGFANLPNQVYRKSVKRGFEFTLMVVGESGLGKSTLINSLFLTDLYSPEYPGPSHRIKKTVQVEQSKVLIKEGGVQLLLTIVDTPGFGDAVDNSNCWQPVIDYIDSKFEDYLNAESRVNRRQMPDNRVQCCLYFIAPSGHGLKPLDIEFMKRLHEKVNIIPLIAKADTLTPEECQQFKKQIMKEIQEHKIKIYEFPETDDEEENKLVKKIKDRLPLAVVGSNTIIEVNGKRVRGRQYPWGVAEVENGEHCDFTILRNMLIRTHMQDLKDVTNNVHYENYRSRKLAAVTYNGVDNNKNKGQLTKSPLAQMEEERREHVAKMKKMEMEMEQVFEMKVKEKVQKLKDSEAELQRRHEQMKKNLEAQHKELEEKRRQFEDEKANWEAQQRILEQQNSSRTLEKNKKKGKIF | – | binds
